Test results reported in PMC11984394.
Results are given in words; binding and its absence hold for the method and conditions named. Binding seen in cells or lysates may run through a third protein. Some results given as binding are weak or reduced against the parent protein; the word gives no strength.

Amino acid sequences for entries named in this document (tags omitted). Residues count along the entry.
UniProt P21802, residues 22-821: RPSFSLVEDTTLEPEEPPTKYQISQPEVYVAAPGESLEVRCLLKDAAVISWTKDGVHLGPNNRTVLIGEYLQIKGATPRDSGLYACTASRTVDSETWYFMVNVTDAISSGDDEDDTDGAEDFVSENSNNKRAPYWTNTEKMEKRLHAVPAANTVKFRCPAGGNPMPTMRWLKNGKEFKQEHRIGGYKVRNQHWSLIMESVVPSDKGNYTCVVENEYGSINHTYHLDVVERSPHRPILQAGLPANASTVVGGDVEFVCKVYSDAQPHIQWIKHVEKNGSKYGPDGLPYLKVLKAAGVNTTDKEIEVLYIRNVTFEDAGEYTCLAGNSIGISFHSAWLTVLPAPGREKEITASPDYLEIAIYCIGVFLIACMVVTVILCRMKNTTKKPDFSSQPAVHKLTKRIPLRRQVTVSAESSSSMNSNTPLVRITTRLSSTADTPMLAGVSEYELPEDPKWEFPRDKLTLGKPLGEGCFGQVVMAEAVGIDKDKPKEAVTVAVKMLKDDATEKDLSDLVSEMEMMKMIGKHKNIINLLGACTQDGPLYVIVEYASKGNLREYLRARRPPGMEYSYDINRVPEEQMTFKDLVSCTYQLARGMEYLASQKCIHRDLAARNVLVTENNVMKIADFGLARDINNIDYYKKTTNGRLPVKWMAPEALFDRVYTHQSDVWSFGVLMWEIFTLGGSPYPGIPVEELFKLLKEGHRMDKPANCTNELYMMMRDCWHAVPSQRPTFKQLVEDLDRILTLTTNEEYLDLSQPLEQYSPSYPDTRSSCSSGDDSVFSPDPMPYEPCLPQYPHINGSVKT

Target: T1, recombinant human SFRP1 protein (human) (UniProt Q8N474)
T1 sequence: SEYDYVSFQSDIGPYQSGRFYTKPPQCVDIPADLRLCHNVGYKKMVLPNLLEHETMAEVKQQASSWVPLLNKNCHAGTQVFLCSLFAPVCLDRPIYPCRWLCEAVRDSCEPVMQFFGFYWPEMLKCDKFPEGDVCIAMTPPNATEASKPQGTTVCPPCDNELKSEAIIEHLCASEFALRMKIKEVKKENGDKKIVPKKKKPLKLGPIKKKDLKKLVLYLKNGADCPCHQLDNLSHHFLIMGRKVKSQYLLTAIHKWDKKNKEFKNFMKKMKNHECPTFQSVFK
Test: co-IP; SFRP1 IP and IgG groups derived from the IP-MS products (SW480 cells incubated with rhSFRP1 for 48 h); whole-cell lysate as input; Western blot; only the target purified

- binding: binds
Substance: FGFR2 receptor (from UniProt P21802 22-821)
